# Source: patent publication US20190038556A1 (University of Pittsburgh - Of The Commonwealth System of …, priority 2012, published 2019)
# Assay: peptide synthesis
# Details: whole synthesis
substance,measurement,value
"Monomethoxy PEG5,000-lysyl-[lysyl-(α-Fmoc-ε-oleoyl lysine)2]2",isolated yield,79%
